The campaign covered roughly 53,000 sequences. About 3,700 (7%) were called active.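 How the source made its calls: active means gene knockdowns whose robust z-score for IL-1 alpha signal is at least 2 or at most -2, so actives lie on both sides; inactive means the rest.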 Some of the results follow.
assay: Components of the Cytosolic LPS Sensing Pathway: Gene Identification via Genome-wide siRNA Screen; details: RAW264.7 macrophages, IL-1a HTRF, actives lie on both sides, screened at 100 nM (by protocol), cells primed 5 h with Pam3CSK4 first;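 further: robust z of the log signal after scaling to non-targeting control siRNA wells of the plate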
Outline: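 Knockdown: 100 nM siRNA, 48h, RAW264.7. Stimulation: Pam3CSK4 5 h, then LipidA via TransIT-TKO 24 h. Output: supernatant IL-1a HTRF, negative-control-normalized, log robust z-score; viability by CellTiter-Glo.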

Sequence	z-score
GGAUGUCUAGUUAUACAUUTT against Mbd3l1	inactive: 1.21
GGACCAGGUGAUGAAGAGGTT against Fzd4	inactive: -1.03
GGGAACAACACAUAAUGGATT against BC002059	inactive: 0.617
GGGUCGGUCUAUUAGGGAUTT against Rhbdf1	inactive: 0.727
GCUUAAAGAUCGAUCCCGCTT against Slc38a4	inactive: 0.742
GGCCAUGGCUACUAUUGUCTT against Tgoln1	inactive: -1.22
GCCAAUUGGUUCCCUGUAATT against 1700034E13Rik	active: -3.04
CCCUUUGUGUCCUAGAUUGTT against Zfand3	inactive: 0.266
GGGUGUGCAUUCUUCUAUUTT against Olfr1242	inactive: 0.536
GGUUCUCGCUCUUAUCUGUTT against Angel2	inactive: 0.353
GGACAGUGCCUGAUAACCATT against Chrm4	inactive: -1.31
GGAACUUAGAAGUUUACAATT against Caml	inactive: -0.0418
GCGAGUUUAAUGUUUAUGCTT against Pdgfra	inactive: -1.29
GGAAUUAGUCUCCAAAUAUTT against Sh2d1b1	inactive: 0.604
GGAUCCUUAAGCUUGGAGCTT against Ascl2	inactive: 0.0277
GGAGAGGGUAGCUUUAAAUTT against Olfr801	inactive: -0.612
GGAACUGAUUCUUAGCUACTT against Lrrc39	inactive: 0.822
GGUAGUAGAAGCUGUUAACTT against Slc36a2	inactive: 0.372
GGAACAGUCGGCCAUUUAATT against Tmem98	inactive: -0.553
CGACAUCAAGGAUCGAAUATT against Pkn2	inactive: 0.144
GCUUUGACCACAUUCAGAGTT against Ncmap	inactive: -0.0337
GGGUUUUGUUAAUACAUACTT against Rhbdd2	inactive: -1.92
GGAGUGCAAUUCCUUUCUATT against Ptger3	inactive: -1.37

Sequence	z-score
GGCCUGAUUACCUUGGAAATT against Papss1	inactive: 0.439
GGCUCAUAUUUCCAUCAGATT against Tchhl1	inactive: -1.13
CCUGCUAAACCUGGACCAUTT against Hic1	inactive: 1.61
GGCUGCUGAAGCAAAUAAGTT against Ankrd17	active: 3.38
GGCUGGAUUAUUUUUUCUUTT against Usp4	inactive: 0.921
GGACUUAAACUUCAUGACATT against Csf2ra	inactive: 0.209
GGAACAGGAAGUUAAAUACTT against Neu4	inactive: 0.482
CGGGCAAGCUCCAAAUGAGTT against Cfap298	inactive: 1.31
GGGAUUUCAAGGAAAUAAGTT against Col28a1	inactive: -0.771
GGCGAGUUUAUAGAAGAAATT against Phf19	inactive: 1.35
CGGGAUGACUACAAUCUGGTT against Ssbp3	active: -2.17
GGCAUAGUGAAUUUAGUCUTT against Iqub	inactive: 0.526
GGAACUGUCACAACUGCUATT against Acat3	active: 3.22
CCCUCAGAUUCAAAAAGUGTT against Krt1	inactive: 0.233
GGUUUAUAUUCUUUGUGGATT against Kcnj1	inactive: -0.214
GGAAUUGUCAGGUCUUGAATT against Tmem174	inactive: -0.311
GGCUGGCUUGCUUGUAAUATT against Fam166c	inactive: 0.311
GGCCUUGUAAAUUAUGCAUTT against Klhl23	inactive: 0.61
GCGGCAUAAUGGAUAUGACTT against Ckmt1	inactive: 0.134
GGAGAAGAGAUCCCUGAACTT against Neurod2	inactive: -0.491
GGCCGCUACCAGUUCAAUUTT against Hapln2	inactive: 0.879
GGCACUUUCCCUAUAUUGUTT against Col26a1	inactive: -1.57
GCAUCUAUGAUGCAUUUGUTT against Tlr4	inactive: -0.153

Sequence	z-score
CCUAUUCAAUUCAGUUCUATT against Slc36a4	inactive: 1.6
UUCAUGUAGGUCUACUAUUTT against Olfr203	inactive: -0.104
GCACAAAGUCGACAAUGGATT against Csnk1e	inactive: -0.568
GGUAUAAAGACCUUUUUUCTT against Bcl7a	inactive: -0.481
CCCAAUGCAAGACAUUAAGTT against Lrrc27	inactive: -1.54
GGGAACAUAGAGUUGAUCCTT against Pdzk1ip1	inactive: -1.27
GGUGUCUACGAGUGCUUCGTT against Gpbar1	inactive: 0.081
GCUAAGUCGGAUGAUAGAATT against Ttc16	inactive: -0.742
CCAAGGUUGAGAACAGAUGTT against Rom1	inactive: 0.403
GGAGAAAAAAGCAGUGGUUTT against Tk2	inactive: -0.0643
GGGAUAUUCGAUCCUCUAGTT against Slc22a4	inactive: -0.272
GCUGAUUUGUGGGAUCUGUTT against Trim13	inactive: -0.057
GGAAAGAUGGUUUUUGUUUTT against Smug1	inactive: 0.847
GGACAUUUCCAAUAACAUUTT against Nifk	inactive: 1.04
GGUCGUGGUGAAAACUAAGTT against Nsg1	inactive: 0.537
GCAACCGAAGAAUGUUUACTT against Ttbk1	inactive: -0.18
GCUUUCUUACCAAGAGUCATT against Vsig8	active: -2.89
GGUAGUACCACUAACCAAATT against Nrl	inactive: 0.257
GGUCUCAGAAGACCUAGAUTT against Mylpf	inactive: -1.91
GGUUCUCUGUGUGAUAGCCTT against Ms4a10	inactive: -0.164
GGUUUUCCUGUUCAAUUCUTT against Olfr586	active: 2.4
GGAAGAACUGAUUGAAGAGTT against Sptlc1	inactive: -0.789

Single values from above.
For z-score, GGUGUCUACGAGUGCUUCGTT against Gpbar1 reads inactive: 0.081
For z-score, GGAAUUAGUCUCCAAAUAUTT against Sh2d1b1 reads inactive: 0.604

Retrieved one by one from the entries so far, 2 records:
Sequence	z-score
GGAACUUAGAAGUUUACAATT against Caml	inactive: -0.0418
GGCACUUUCCCUAUAUUGUTT against Col26a1	inactive: -1.57
